This is an account of results in patent US20210267930A1, “MODIFIED ANTIBODY-ALBUMIN NANOPARTICLE COMPLEXES FOR CANCER TREATMENT” (Mayo Foundation for Medical Education and Research, priority 2016, published 2021).

By UniProt entry, the sequences of proteins in these tests, tags left out. Residues count along the entry.
UniProt P02768, residues 25-609: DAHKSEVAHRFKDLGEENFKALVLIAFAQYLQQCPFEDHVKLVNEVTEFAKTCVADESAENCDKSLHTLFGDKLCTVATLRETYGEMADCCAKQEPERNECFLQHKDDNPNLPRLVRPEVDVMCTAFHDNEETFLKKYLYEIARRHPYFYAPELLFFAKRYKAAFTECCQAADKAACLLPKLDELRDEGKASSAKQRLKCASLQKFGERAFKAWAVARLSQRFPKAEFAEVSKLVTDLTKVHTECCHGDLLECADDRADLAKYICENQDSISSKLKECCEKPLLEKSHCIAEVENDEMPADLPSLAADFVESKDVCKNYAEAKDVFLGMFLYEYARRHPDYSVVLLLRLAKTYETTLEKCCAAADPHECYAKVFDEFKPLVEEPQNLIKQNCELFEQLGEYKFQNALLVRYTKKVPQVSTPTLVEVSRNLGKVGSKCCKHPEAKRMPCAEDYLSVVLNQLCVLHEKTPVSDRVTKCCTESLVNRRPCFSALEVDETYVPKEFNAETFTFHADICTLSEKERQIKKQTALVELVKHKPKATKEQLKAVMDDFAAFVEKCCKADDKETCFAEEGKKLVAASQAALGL

These are yes or no findings as the source states them, for the method shown. Some entries that bind do so weakly or less than the wild type.

The test deals with T1, human serum albumin (HSA) (human, UniProt P02768 25-609).
T1 construct: also called full HSA protein
The experiment in a line: Biacore SPR. (In SPR one partner is held on a chip, and binding of the other changes the refractive index at the surface.)

Take DTAVYYCAKYPHYYGSSHWYF [BEV Peptide 1 (bevacizumab variable peptide 1)]: the binding entry was “binds”.
